For test [1], the target named is purified PP1α released from the GST-PP1α fusion protein by thrombin (human) (UniProt P62136). Description: GST pulldown in vitro.
The target is the same in test [2]. The test can be described thus: GST pulldown of purified PP1α, immunoblot with anti-PP1α antibody. Background: Immunoblotting shows a protein as a band on a membrane.
Test [3] deals with protein encoded by the cDNA isolated from the human brain cDNA library in the yeast two-hybrid screen: catalytic subunit of protein phosphatase 1α (PP1α) (human) (UniProt P62136). Description: yeast two-hybrid.
Test [4] has the same target. The test can be described thus: yeast two-hybrid, β-galactosidase filter assay.

No constants are given. Whether binding was seen depends on the method and setting. For some of these results: In cells and extracts the contact can be indirect. Some entries that bind do so weakly or less than the wild type.

In the case of “GST fused to the carboxyl terminus of MyD116 (pRB4873) (from UniProt P17564 485-657)”, the binding result in test [1] and in test [2] was “binds” in each case.

On to “carboxyl terminus of MyD116 (codons 524 to 657) in pGBT9 (pRB4890), the bait of the yeast two-hybrid system (from UniProt P17564 524-657)”, for which the binding entry in test [3] and in test [4] was “binds” throughout.

The values above are taken from patent EP1019524B1.
